Assay [1] deals with Staphylococcus aureus (S. aureus) ATCC 29213. Nature of the assay: Rapid antibiotic susceptibility test with microwell-patterned hydrogel in 96 well plate, time-lapse imaging. It is filed as cell-based. The conditions noted are these: ATCC29213, 4 h, hydrogel device, images every hour for four hours, 37° C., read-out: minimum inhibitory concentration (MIC). Here is the method:
(§1) FIG. 2 is a schematic diagram illustrating a technique for dissociating cell colonies into cells at the level of individual cells and continuously observing the morphological changes of the isolated single cells by utilizing a hydrogel structure according to one embodiment of the present disclosure. Referring to (a) of FIG. 2, a conventional 96 well plate is prepared, and thereafter, a dried microwell-patterned hydrogel is inserted into each well. Referring next to (b) of FIG. 2, a cell culture medium containing bacterial cells, nutrients and antibiotics is introduced into each well containing the dry microwell-patterned hydrogel. At the initial stage of introduction, the bottom microwells of the microwell-patterned hydrogel are not yet seated on the base of the well and the microwell-patterned hydrogel is slightly floating. Thus, the bacterial cells are free to move in and out of each microwell pattern. […]
(§2) In the case of the Streptomyces atratus (spore-type actinomycetes) cultures, the final cell concentration of the wells was controlled at 7.5×10^7 CFU/mL with tryptic soy broth (TSB, Sparks, MD) and growth was at 28° C. […] After that, 227.5 μL (91% v/v) of Mueller-Hinton broth (MHB, Fluka Analytical), 2.5 μL (1% v/v) of the antibiotics, and 20 μL (8% v/v) of bacterial cells were mixed and growth was monitored at 37° C. […]

The subject of assay [2] is Escherichia coli (E. coli) ATCC 25922. The description is as above. The class given is cell-based. As to conditions: ATCC25922, 4 h, hydrogel device, images every hour for four hours, 37° C., read-out: minimum inhibitory concentration (MIC). The method, then: as §1, §2

These results are taken from US12059682B2, “Method for isolation and morphological analysis of cells” (EzDiaTech Inc., priority 2018, dated 2024).

In brackets after ≈: the same amount, converted by molar mass.

In the case of `CC1(C)S[C@@H]2[C@H](NC(=O)[C@H](N)c3ccccc3)C(=O)N2[C@H]1C(=O)O` [ampicillin], the MIC in assay [1] came out at 2 mg/L (≈ 5.72 µM); in assay [2] it was 4 mg/L (≈ 11.4 µM).
